Test results from US10898582B2, “Bi-functional allosteric protein-drug molecules for targeted therapy” (UNIVERSITY OF UTAH RESEARCH FOUNDATION, priority 2014, dated 2021).
At least one structure is not confirmed: it was looked up by name or label, or the drawing left a doubt. Some of these results come from one statement about several compounds together.

Tested on: MCF-7 cells
Assay: Uptake kinetics of FITC-GM into MCF-7 cells
Assay type: cell-based
Experimental: Finally, 10 μg/ml of GM was sufficient to achieve internalization into 100% of the cell population when delivered by the PTD-ABD protein (FIG. 3c).

Compound: COC1=C2C[C@@H](C)C[C@H](OC)[C@H](O)[C@@H](C)/C=C(\C)[C@H](OC(N)=O)[C@@H](OC)/C=C\C=C(/C)C(=O)NC(=CC1=O)C2=O [GM, Geldanamycin]
- GM concentration sufficient to achieve internalization into 100% of the cell population (dose-dependent): > 25 µg/mL
- mean fluorescence intensity (MFI), amount of GM internalized (time-dependent): did not show this same pattern
